Values joined by “and” are separate entries in the source; they are usually repeats but may differ in a detail not shown here. Equal values may be shown once. Some of the results follow. These are further read-outs of the screen, such as a control signal, another cell line or another target. No call is given for them. Compounds called inactive in the main read-out are mostly missing here. For some of these results: The note in brackets gives the kind of curve behind each potency; many fits are weak.
Assay: qHTS Assay for Modulators of Human Peripheral Myelin Protein 22 (PMP22) Expression/Activity (AID 1967)
Settings: Cell-based PMP22 reporter, dual-color luciferase ratio; measured here: green reporter channel AC50; mouse Pmp22 promoter in mouse Schwann cells
Procedure, shortened: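 Readout is the corrected green/red luminescence ratio after 24 h compound exposure, normalised to untreated cells (0%). Engineered MSC80 mouse Schwann cells express green luciferase from the mouse Pmp22 promoter and red luciferase from EF-alpha as internal control.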

Compound | AC50
O=C(O)c1ccccc1Nc1ccccc1 | 5.36 µM [rising, full curve, poor fit]
CCOC(=O)Nc1ccc(NCc2ccc(F)cc2)nc1N | 84.9 µM [falling, single point]
Cc1cc(O)c2c(c1)C(=O)c1cc(O)cc(O)c1C2=O | 95.3 µM [falling, single point]

Same assay, conditions: Cell-based PMP22 reporter, dual-color luciferase ratio; measured here: red reporter channel AC50; EF-alpha promoter control reporter in MSC80 mouse Schwann cells

Compound | AC50
Cc1ccccc1N1C(=O)c2cc(S(N)(=O)=O)c(Cl)cc2NC1C (stereo not given) | 42.6 µM [falling, partial curve]
CCN(CC)CCNC(=O)c1ccc(N)cc1 | 37.9 µM [rising, single point]
CC(N=C(NC#N)Nc1ccncc1)C(C)(C)C (stereo not given) | 95.3 µM [falling, single point]
CCN(CC)CCOCCOC(=O)C1(c2ccccc2)CCCC1 | 84.9 µM [falling, single point]
O=C(O)C1CCNCC1 | 95.3 µM [falling, single point]
COc1ccc2c(c1OC)C(=O)OC2C1c2c(cc3c(c2OC)OCO3)CCN1C (stereo not given) | 67.5 µM [falling, partial curve, poor fit]
CC(=O)NNC(=O)N1Cc2ccccc2Oc2ccc(Cl)cc21 | 1.07 µM [rising, full curve, poor fit]
COc1ccc2c(c1)c(CC(=O)O)c(C)n2Cc1ccc(F)cc1 | 75.7 µM [falling, partial curve, poor fit]
O=C(O)CN(CCN(CC(=O)O)CC(=O)O)CCN(CC(=O)O)CC(=O)O | 95.3 µM [falling, single point]
Clc1ccc(N2CCN(Cc3c[nH]c4ncccc34)CC2)cc1 | 95.3 µM [falling, single point]
CC(C)C1NC(=O)[C@H](CCCCN)NC(=O)[C@@H](Cc2c[nH]c3ccccc23)NC(=O)[C@H](Cc2ccc(O)cc2)NC(=O)[C@H](C)N(C)C(=O)[C@H](Cc2ccccc2)NC1=O (stereo not given in full) | 84.9 µM [falling, single point]
CN(C)CCOC(=O)COc1ccc(Cl)cc1 | 95.3 µM [falling, single point]
N[C@@H](CCC(=O)N[C@H](CSN=O)C(=O)NCC(=O)O)C(=O)O | 95.3 µM [falling, single point]
Cc1ccc([N+](=O)[O-])cc1S(=O)(=O)N(C)C | 95.3 µM [falling, single point]
COc1ccccc1NC(=O)Nc1nc(-c2cccnc2)nc2ccccc12 | 3.01 µM [falling, full curve]
NC(N)=[N+]1CCc2ccccc2C1 | 26.9 µM [rising, single point]
C[C@H]1CC2[C@@H]3CCC4=CC(=O)C=C[C@]4(C)[C@@]3(F)[C@@H](O)C[C@]2(C)[C@@]1(O)C(=O)CO (stereo not given in full) | 75.7 µM [falling, single point]

Pulled by structure from above, 2 records:
Compound | AC50
Cc1ccccc1N1C(=O)c2cc(S(N)(=O)=O)c(Cl)cc2NC1C (stereo not given) | 42.6 µM [falling, partial curve]
CN(C)CCOC(=O)COc1ccc(Cl)cc1 | 95.3 µM [falling, single point]

Assay: qHTS assay for small molecule antagonists of peroxisome proliferator-activated receptor delta signaling (AID 588535);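 also: cells co-treated with a PPAR-delta agonist as stimulator during compound exposure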
Settings: HEK293T PPARd-UAS-bla, beta-lactamase FRET ratio, 18 h; 460 nm channel
Procedure, shortened: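 GeneBLAzer PPAR-delta-UAS-bla HEK293T cells in medium with 2% charcoal/dextran FBS were preincubated 5 hrs at 37 C, then given compounds, incubated 18 hrs at 37 C, and read by CCF4 beta-lactamase fluorescence; IC50 from Hill fits.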

Compound | max response
COc1ccc2nc(S(=O)Cc3ncc(C)c(OC)c3C)[nH]c2c1 (stereo not given) | 139%
O=c1[nH]cnc2c1ncn2[C@H]1CC[C@@H](CO)O1 | 18.6%
Cc1cn([C@H]2C[C@H](N=[N+]=[N-])[C@@H](CO)O2)c(=O)[nH]c1=O | 46.8%
Cc1nnc(NS(=O)(=O)c2ccc(N)cc2)s1 | 95.1%

Assay: qHTS assay for small molecule antagonists of peroxisome proliferator-activated receptor gamma signaling (AID 588537)
Settings: HEK293 PPARg-UAS-bla, beta-lactamase ratio, antagonist mode; measured here: W460 blue channel
Procedure, shortened: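 PPAR-gamma-UAS-bla HEK293 cells (3000/well, 1% charcoal/dextran-stripped FBS) were preincubated 6-6.5 h at 37 C, given titrated compounds, then stimulated with 50 nM rosiglitazone for 16 h. Beta-lactamase activity was read with CCF4 dye; IC50 came from Hill fits.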

Compound | AC50
Cc1noc(NS(=O)(=O)c2ccc(N)cc2)c1C | 70.8 µM [rising, single point]
O=C(N[C@H](CO)[C@H](O)c1ccc([N+](=O)[O-])cc1)C(Cl)Cl | 79.4 µM [rising, single point]
O=c1[nH]cnc2c1ncn2[C@H]1CC[C@@H](CO)O1 | 50.1 µM [rising, single point] and 12.6 µM [falling, full curve, poor fit]
Cc1cn([C@H]2C[C@H](N=[N+]=[N-])[C@@H](CO)O2)c(=O)[nH]c1=O | 0.00112 µM [falling, full curve, poor fit]
Cc1nnc(NS(=O)(=O)c2ccc(N)cc2)s1 | 50.1 µM [rising, single point]
Cc1cc(NS(=O)(=O)c2ccc(N)cc2)no1 | 70.8 µM [rising, single point]

Assay: qHTS assay for small molecule agonists of retinoid X receptor alpha signaling (AID 588544)
Settings: HEK293T RXRa-UAS-bla, beta-lactamase reporter, 18 h; 530 nm emission

Compound | max response
CCCCC(CC)COC(=O)C(C#N)=C(c1ccccc1)c1ccccc1 (stereo not given) | 11.5%
Cc1noc(NS(=O)(=O)c2ccc(N)cc2)c1C | -9.86%
COc1ccc2nc(S(=O)Cc3ncc(C)c(OC)c3C)[nH]c2c1 (stereo not given) | 39.2%
O=C(N[C@H](CO)[C@H](O)c1ccc([N+](=O)[O-])cc1)C(Cl)Cl | -11.5%
CCc1cc(C(N)=S)ccn1 | 7.97%
O=c1c(O)c(-c2ccc(O)cc2)oc2cc(O)cc(O)c12 | 47%

Assay: qHTS assay for small molecule antagonists of retinoid X receptor alpha signaling (AID 588546);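 also: cells stimulated with 9-cis-retinoic acid as agonist; % is scaled to controls: 0 for no effect and ±100 for the full control effect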
Settings: HEK293T RXRa-UAS-bla, beta-lactamase ratio, antagonist mode; measured here: W530 green channel, cytotoxicity proxy
Procedure, shortened: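 Beta-lactamase reporter inhibition, read as CCF4 fluorescence ratio (ex 405, em 460/530 nm) after 2 h at RT. HEK293T UAS-bla cells, 2500/well, were stimulated with 9-cis-RA at 500 or 100 nM final alongside test compound for 18 h at 37 C.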

Compound | max response
CCc1cc(C(N)=S)ccn1 | -9.3%
Cc1cc(O)c2c(c1)C(=O)c1cc(O)cc(O)c1C2=O | -5.06%
O=c1[nH]cnc2c1ncn2[C@H]1CC[C@@H](CO)O1 | -6.62%
O=c1c(O)c(-c2ccc(O)cc2)oc2cc(O)cc(O)c12 | 28.3% and 14.8%

Reference: PubChem BioAssay (NCATS)
